Source: US8546392B2, “17Beta-hydroxysteroid dehydrogenase type 1 inhibitors for the treatment of hormone-related diseases” (Universitaet des Saarlandes, priority 2008, dated 2013)
Read-outs that look alike come from different tables or passages of the source.

Key:
[1] = rat, pH 7.4
[2] = Test for metabolic stability, liver microsomes; settings: rat liver microsomes

SMILES	Slope (−k) [1]	Slope (−k) [2]
CN1C(=O)CN=C(c2ccccc2)c2cc(Cl)ccc21 [diazepam]	−0.017	–
CN(C)CCOC(c1ccccc1)c1ccccc1 [diphenhydramine, reference compound]	–	−0.102
